US20250331521A1, “NITROGEN-CONTAINING HETEROCYCLIC COMPOUND HAVING AN OXIME GROUP, AGRICULTURAL OR HORTICULTURAL HERBICIDE COMPRISING THE COMPOUND, AND METHOD FOR USING THE COMPOUND OR THE HERBICIDE” (NIHON NOHYAKU CO., LTD., priority 2022, published 2025)
Some results were stated once for a whole list of compounds, not compound by compound. Some ranges recur; such a range may be that of the whole group of compounds.

System: Barnyard grass (Echinochloa crus-galli)
Experiment: Test Example 1: post-emergence herbicidal effect against paddy weeds
Format: in vivo
Settings: active ingredient concentration 10 ppm; drop treatment in hydroponic medium; 30° C., full light; six days after treatment; compared to non-treatment group
Procedure: Test Example 1: Test for Post-Emergence Herbicidal Effect Against Paddy Weeds Barnyard grass (Echinochloa crus-galli) was seeded and grown in test tubes containing hydroponic medium in an artificial climate chamber or a phytotron. Agrochemical formulations containing the compounds of the present invention as active ingredients prepared according to Formulation Example 1 were separately diluted with water so that the concentration of the active ingredient would be a predetermined concentration and used for drop treatment of the barnyard grass. The barnyard grass was grown in the artificial climate chamber at 30° C. under full light conditions. Six days after agrochemical treatment, the herbicidal effect was evaluated as compared to the non-treatment group according to the following criteria. Criteria for Herbicidal Effect (Degree of Growth Inhibition) and Phytotoxicity • Score 4 90% to 100% herbicidal effect • Score 3 70% to 89% herbicidal effect • Score 2 40% to 69% herbicidal effect • Score 1 1% to 39% herbicidal effect • Score 0 0% herbicidal effect

Row | SMILES | herbicidal effect against barnyard grass (score, degree of growth inhibition)
1 | CCO/N=C(\NC(C)=O)c1ccc(C(=O)OCC)c(-c2nc(-c3ccccc3)nn2C)n1 [1-2] | 3 (Score 3 70% to 89% herbicidal effect)
2 | CCO/N=C(\NC(=O)C(F)(F)F)c1ccc(C(=O)OCC)c(-c2nc(-c3ccccc3)nn2C)n1 [1-3] | 3 (Score 3 70% to 89% herbicidal effect)
3 | CCO/N=C(\C)c1ccc(S(C)(=O)=O)c(-c2nc(-c3ccccc3)nn2C)n1 [1-6] | 3 (Score 3 70% to 89% herbicidal effect)
4 | CCO/N=C(\N)c1ccc(S(C)(=O)=O)c(-c2nc(-c3ccccc3)nn2C)n1 [1-7] | 3 (Score 3 70% to 89% herbicidal effect)
5 | CCO/N=C(\N)c1ccc(C(=O)OCC)c(-c2nc(-c3ccccc3)nn2C)n1 [1-8] | 3 (Score 3 70% to 89% herbicidal effect)
6 | CCO/N=C(\N)c1ccc(S(=O)(=O)NC)c(-c2nc(-c3c(F)cccc3F)nn2C)n1 [1-9] | 3 (Score 3 70% to 89% herbicidal effect)
7 | CO/N=C(\N)c1ccc(S(=O)(=O)N(C)C)c(-c2nc(-c3cccc(F)c3)nn2C)n1 [1-11] | 3 (Score 3 70% to 89% herbicidal effect)
8 | CO/N=C(\N)c1ccc(S(=O)(=O)N(C)C)c(-c2nc(-c3ccccc3)nn2C)n1 [1-13] | 3 (Score 3 70% to 89% herbicidal effect)
9 | CNS(=O)(=O)c1ccc(/C(N)=N/OC)nc1-c1nc(-c2cc(F)cc(F)c2)nn1C [1-14] | 3 (Score 3 70% to 89% herbicidal effect)
10 | CCO/N=C(\N)c1ccc(S(=O)(=O)NC)c(-c2nc(-c3cc(F)cc(F)c3)nn2C)n1 [1-15] | 3 (Score 3 70% to 89% herbicidal effect)
11 | CCO/N=C(\N)c1ccc(S(=O)(=O)NC)c(-c2nc(-c3cccc(C(F)F)c3)nn2C)n1 [1-17] | 3 (Score 3 70% to 89% herbicidal effect)
12 | CC(C)O/N=C(\N)c1ccc(S(=O)(=O)N(C)C)c(-c2nc(-c3ccccc3)nn2C)n1 [1-18] | 3 (Score 3 70% to 89% herbicidal effect)
13 | CO/N=C(\N)c1ccc(S(=O)(=O)N(C)C)c(-c2nc(-c3ccccc3Cl)nn2C)n1 [1-19] | 3 (Score 3 70% to 89% herbicidal effect)
14 | CC(C)O/N=C(\N)c1ccc(S(=O)(=O)N(C)C)c(-c2nc(-c3ccccc3Cl)nn2C)n1 [1-20] | 3 (Score 3 70% to 89% herbicidal effect)
15 | CNS(=O)(=O)c1ccc(/C(N)=N/OC)nc1-c1nc(-c2ccccc2OC)nn1C [1-21] | 3 (Score 3 70% to 89% herbicidal effect)
16 | CCO/N=C(\N)c1ccc(S(=O)(=O)NC)c(-c2nc(-c3ccccc3OC)nn2C)n1 [1-22] | 3 (Score 3 70% to 89% herbicidal effect)
17 | CNS(=O)(=O)c1ccc(/C(N)=N/OC)nc1-c1nc(-c2cccc(Cl)c2Cl)nn1C [1-23] | 3 (Score 3 70% to 89% herbicidal effect)
18 | CCO/N=C(\N)c1ccc(S(=O)(=O)NC)c(-c2nc(-c3cccc(Cl)c3Cl)nn2C)n1 [1-24] | 3 (Score 3 70% to 89% herbicidal effect)
19 | CCO/N=C(\N)c1ccc(S(=O)(=O)NC)c(-c2nc(-c3cccc(Cl)c3)nn2C)n1 [1-26] | 3 (Score 3 70% to 89% herbicidal effect)
20 | CNS(=O)(=O)c1ccc(/C(N)=N/OC)nc1-c1nc(-c2cccc(Cl)c2)nn1C [1-27] | 3 (Score 3 70% to 89% herbicidal effect)
21 | CNS(=O)(=O)c1ccc(/C(N)=N/OC(C)C)nc1-c1nc(-c2ccccc2)nn1C [1-28] | 3 (Score 3 70% to 89% herbicidal effect)
22 | CNS(=O)(=O)c1ccc(/C(N)=N/OC)nc1-c1nc(-c2ccccc2Cl)nn1C [1-29] | 3 (Score 3 70% to 89% herbicidal effect)
